# Test results as given in the supplement of paper PMC8728848.
# The list shows a part of the results.
# What was measured:
# Test in all cases: glycan array binding signal (z-score within array); higher = stronger binding
# Details in all cases: glycan notation: IUPAC condensed, linker removed
# [1] = target: Neu5Ac(a2-6)Gal(b1-4)GlcNAc(b1-3)Gal(b1-4)GlcNAc(b1-3)GalNAc
# How it was run: (§1)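 Glycan array data came from 3228 arrays in the Consortium for Functional Glycomics database, and only arrays with an available protein sequence were kept. Glycan names were put into IUPAC-condensed notation, and columns mapping to the same glycan were averaged. The binding signal is a within-array Z-score, averaged across arrays of one protein sequence run at different concentrations or buffers and across linkers. A negative Z-score can be read as non-binding.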
# [2] = target: Neu5Ac(a2-6)Gal(b1-4)GlcNAc(b1-3)Gal(b1-4)GlcNAc(b1-3)[Neu5Ac(a2-6)Gal(b1-4)GlcNAc(b1-3)Gal(b1-4)GlcNAc(b1-6)]GalNAc
# How it was run: as §1
# [3] = target: Neu5Ac(a2-6)Gal(b1-4)GlcNAc(b1-3)Gal(b1-4)GlcNAc(b1-6)[Gal(b1-3)]GalNAc
# How it was run: as §1
# [4] = target: Neu5Ac(a2-6)Gal(b1-4)GlcNAc(b1-3)Gal(b1-4)[Fuc(a1-3)]GlcNAc(b1-3)Gal(b1-4)[Fuc(a1-3)]GlcNAc
# How it was run: as §1
# [5] = target: Neu5Ac(a2-6)Gal(b1-4)GlcNAc(b1-3)GalNAc
# How it was run: as §1
# [6] = target: Neu5Ac(a2-6)Gal(b1-4)GlcNAc(b1-3)[Neu5Ac(a2-6)Gal(b1-4)GlcNAc(b1-6)]GalNAc
# How it was run: as §1
# [7] = target: Neu5Ac(a2-6)Gal(b1-4)GlcNAc(b1-6)GalNAc
# How it was run: as §1
# [8] = target: Neu5Ac(a2-6)Gal(b1-4)GlcNAc(b1-6)[Gal(b1-3)GlcNAc(b1-3)]Gal(b1-4)Glc
# How it was run: as §1
# [9] = target: Neu5Ac(a2-6)Gal(b1-4)GlcNAc(b1-6)[Gal(b1-3)]GalNAc
# How it was run: as §1
# [10] = target: Neu5Ac(a2-6)Gal(b1-4)GlcNAc6S
# How it was run: as §1
# [11] = target: Neu5Ac(a2-6)GalNAc
# How it was run: as §1
# [12] = target: Neu5Ac(a2-6)GalNAc(b1-4)GlcNAc
# How it was run: as §1
# [13] = target: Neu5Ac(a2-6)GalNAc(b1-4)GlcNAc6S
# How it was run: as §1
# [14] = target: Neu5Ac(a2-6)GlcNAc(b1-4)GlcNAc
# How it was run: as §1
# [15] = target: Neu5Ac(a2-6)GlcNAc(b1-4)GlcNAc(b1-4)GlcNAc
# How it was run: as §1
# [16] = target: Neu5Ac(a2-8)Neu5Ac
# How it was run: as §1
# [17] = target: Neu5Ac(a2-8)Neu5Ac(a2-3)Gal(b1-3)GalNAc(b1-4)[Neu5Ac(a2-3)]Gal(b1-4)Glc
# How it was run: as §1
# [18] = target: Neu5Ac(a2-8)Neu5Ac(a2-3)Gal(b1-3)GalNAc(b1-4)[Neu5Ac(a2-8)Neu5Ac(a2-3)]Gal(b1-4)Glc
# How it was run: as §1
# [19] = target: Neu5Ac(a2-8)Neu5Ac(a2-3)Gal(b1-4)Glc
# How it was run: as §1
# [20] = target: Neu5Ac(a2-8)Neu5Ac(a2-3)Gal(b1-4)GlcNAc
# How it was run: as §1
# [21] = target: Neu5Ac(a2-8)Neu5Ac(a2-3)[Gal(b1-3)GalNAc(b1-4)]Gal(b1-4)Glc
# How it was run: as §1
# [22] = target: Neu5Ac(a2-8)Neu5Ac(a2-3)[GalNAc(b1-4)]Gal(b1-4)Glc
# How it was run: as §1
# [23] = target: Neu5Ac(a2-8)Neu5Ac(a2-8)Neu5Ac
# How it was run: as §1
# [24] = target: Neu5Ac(a2-8)Neu5Ac(a2-8)Neu5Ac(a2-3)Gal(b1-4)Glc
# How it was run: as §1
# [25] = target: Neu5Ac(a2-8)Neu5Ac(a2-8)Neu5Ac(a2-3)[Gal(b1-3)GalNAc(b1-4)]Gal(b1-4)Glc
# How it was run: as §1
# [26] = target: Neu5Ac(a2-8)Neu5Ac(a2-8)Neu5Ac(a2-3)[GalNAc(b1-4)]Gal(b1-4)Glc
# How it was run: as §1
# [27] = target: Neu5Ac(a2-8)Neu5Ac(a2-8)Neu5Ac(a2-8)Neu5Ac(a2-3)[GalNAc(b1-4)]Gal(b1-4)Glc
# How it was run: as §1
# [28] = target: Neu5Ac(a2-8)Neu5Gc(a2-3)Gal(b1-4)GlcNAc
# How it was run: as §1
# [29] = target: Neu5Ac(b2-6)Gal(b1-4)GlcNAc
# How it was run: as §1
# [30] = target: Neu5Ac(b2-6)GalNAc
# How it was run: as §1
# [31] = target: Neu5Ac9Ac(a2-3)Gal(b1-3)GlcNAc
# How it was run: as §1
# [32] = target: Neu5Ac9Ac(a2-3)Gal(b1-4)GlcNAc
# How it was run: as §1
# [33] = target: Neu5Ac9Ac(a2-6)Gal(b1-4)GlcNAc
# How it was run: as §1
# [34] = target: Neu5Gc(a2-3)Gal(b1-3)GlcNAc
# How it was run: as §1
# [35] = target: Neu5Gc(a2-3)Gal(b1-3)[Fuc(a1-4)]GlcNAc
# How it was run: as §1
# [36] = target: Neu5Gc(a2-3)Gal(b1-4)Glc
# How it was run: as §1
# [37] = target: Neu5Gc(a2-3)Gal(b1-4)GlcNAc
# How it was run: as §1
# [38] = target: Neu5Gc(a2-3)Gal(b1-4)GlcNAc(b1-3)Gal(b1-4)GlcNAc(b1-2)Man(a1-3)[Neu5Gc(a2-3)Gal(b1-4)GlcNAc(b1-3)Gal(b1-4)GlcNAc(b1-2)Man(a1-6)]Man(b1-4)GlcNAc(b1-4)GlcNAc
# How it was run: as §1
# [39] = target: Neu5Gc(a2-3)Gal(b1-4)[Fuc(a1-3)]GlcNAc
# How it was run: as §1
# [40] = target: Neu5Gc(a2-6)Gal(b1-4)GlcNAc
# How it was run: as §1
# [41] = target: Neu5Gc(a2-6)GalNAc
# How it was run: as §1
# [42] = target: Neu5Gc(a2-8)Neu5Ac(a2-3)Gal(b1-4)GlcNAc
# How it was run: as §1
# [43] = target: Neu5Gc(a2-8)Neu5Gc(a2-3)Gal(b1-4)GlcNAc
# How it was run: as §1
# [44] = target: Neu5Gc(a2-8)Neu5Gc(a2-3)Gal(b1-4)GlcNAc(b1-3)Gal(b1-4)GlcNAc
# How it was run: as §1
# [45] = target: Neu5Gc(a2-8)Neu5Gc(a2-6)Gal(b1-4)GlcNAc
# How it was run: as §1
# [46] = target: Neu5Gc(b2-6)Gal(b1-4)GlcNAc
# How it was run: as §1
binder,measurement,setting,value
Lb MiSSP8 (Laccaria bicolor) (protein) MYFHTLFACATLMLITTAHASPTVINSLDSRKADLNGDVEARHAADWRRDSDWRRDSDWRRDSDWRRDSD,glycan array binding signal (z-score),[1],-0.778
same,glycan array binding signal (z-score),[2],1.74
same,glycan array binding signal (z-score),[3],-0.792
same,glycan array binding signal (z-score),[4],-0.633
same,glycan array binding signal (z-score),[5],-0.274
same,glycan array binding signal (z-score),[6],-0.737
same,glycan array binding signal (z-score),[7],-0.33
same,glycan array binding signal (z-score),[8],-0.357
same,glycan array binding signal (z-score),[9],-0.509
same,glycan array binding signal (z-score),[10],-0.806
same,glycan array binding signal (z-score),[11],-0.44
same,glycan array binding signal (z-score),[12],-0.971
same,glycan array binding signal (z-score),[13],-0.557
same,glycan array binding signal (z-score),[14],-0.592
same,glycan array binding signal (z-score),[15],0.423
same,glycan array binding signal (z-score),[16],-0.65
same,glycan array binding signal (z-score),[17],-0.336
same,glycan array binding signal (z-score),[18],1.89
same,glycan array binding signal (z-score),[19],-0.744
same,glycan array binding signal (z-score),[20],-0.861
same,glycan array binding signal (z-score),[21],-0.405
same,glycan array binding signal (z-score),[22],-0.295
same,glycan array binding signal (z-score),[23],-0.768
same,glycan array binding signal (z-score),[24],-0.84
same,glycan array binding signal (z-score),[25],1.08
same,glycan array binding signal (z-score),[26],-0.82
same,glycan array binding signal (z-score),[27],-0.778
same,glycan array binding signal (z-score),[28],-0.965
same,glycan array binding signal (z-score),[29],-0.896
same,glycan array binding signal (z-score),[30],-0.923
same,glycan array binding signal (z-score),[31],-0.55
same,glycan array binding signal (z-score),[32],-0.447
same,glycan array binding signal (z-score),[33],-0.709
same,glycan array binding signal (z-score),[34],-0.571
same,glycan array binding signal (z-score),[35],-0.53
same,glycan array binding signal (z-score),[36],1.35
same,glycan array binding signal (z-score),[37],-0.543
same,glycan array binding signal (z-score),[38],0.285
same,glycan array binding signal (z-score),[39],1.81
same,glycan array binding signal (z-score),[40],0.761
same,glycan array binding signal (z-score),[41],0.085
same,glycan array binding signal (z-score),[42],-0.958
same,glycan array binding signal (z-score),[43],-0.861
same,glycan array binding signal (z-score),[44],-0.965
same,glycan array binding signal (z-score),[45],-0.896
same,glycan array binding signal (z-score),[46],-0.157

# Reprinted at random: three entries already listed.
binder,measurement,setting,value
Lb MiSSP8 (Laccaria bicolor) (protein) MYFHTLFACATLMLITTAHASPTVINSLDSRKADLNGDVEARHAADWRRDSDWRRDSDWRRDSDWRRDSD,glycan array binding signal (z-score),[35],-0.53
same,glycan array binding signal (z-score),[25],1.08
same,glycan array binding signal (z-score),[4],-0.633
